Source: patent US20130225581A1, “NITROGEN-CONTAINING AROMATIC HETEROCYCLIC DERIVATIVE” (KYOWA HAKKO KIRIN CO., LTD, priority 2010, published 2013)
pIC50: −log10 of the molar value. Some of these results come from one statement about several compounds together.

By UniProt entry, the sequences of proteins in these tests, tags left out. Residues count along the entry.
UniProt P21802, 22-821: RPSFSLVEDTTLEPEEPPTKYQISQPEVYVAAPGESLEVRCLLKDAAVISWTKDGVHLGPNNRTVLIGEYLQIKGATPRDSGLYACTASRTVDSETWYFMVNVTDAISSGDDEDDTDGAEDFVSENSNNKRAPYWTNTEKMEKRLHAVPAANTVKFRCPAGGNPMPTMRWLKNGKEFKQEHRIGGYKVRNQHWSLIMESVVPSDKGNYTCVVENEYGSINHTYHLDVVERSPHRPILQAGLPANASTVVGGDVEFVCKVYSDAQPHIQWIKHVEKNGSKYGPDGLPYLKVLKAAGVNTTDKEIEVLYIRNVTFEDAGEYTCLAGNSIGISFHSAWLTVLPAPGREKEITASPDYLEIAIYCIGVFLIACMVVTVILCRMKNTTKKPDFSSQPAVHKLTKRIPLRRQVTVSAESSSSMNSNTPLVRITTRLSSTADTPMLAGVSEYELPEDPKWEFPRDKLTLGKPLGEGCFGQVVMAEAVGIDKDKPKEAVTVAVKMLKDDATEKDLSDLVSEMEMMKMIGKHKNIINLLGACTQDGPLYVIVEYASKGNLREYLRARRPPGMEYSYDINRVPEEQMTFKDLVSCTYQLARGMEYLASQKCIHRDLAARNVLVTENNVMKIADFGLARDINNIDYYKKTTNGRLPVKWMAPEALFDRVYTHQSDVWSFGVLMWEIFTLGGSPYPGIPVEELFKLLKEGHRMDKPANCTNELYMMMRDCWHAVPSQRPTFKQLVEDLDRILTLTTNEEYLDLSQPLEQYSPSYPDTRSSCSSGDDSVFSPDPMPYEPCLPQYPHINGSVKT

Target: T1, Human FGFR2 (Homo sapiens, UniProt P21802)
T1 construct: purchased Millipore 14-617
Experiment: Measurement of inhibitory activity of human FGFR2 enzymatic activity (mobility shift assay)
Assay type: biochemical
Conditions: FGFR2 2 nmol/L, FL-Peptide 22 substrate, 28° C. for 240 minutes; read-out: 50% inhibitory concentration (IC50) of FGFR2 phosphorylation

Compound | pIC50
COc1cc2nccc(Oc3ccc(NC(=O)Nc4c(-c5cccc(F)c5)nc(C(C)C)n4C)cc3F)c2cc1OC [Compound 4, 1-[4-(6,7-Dimethoxyquinolin-4-yloxy)-3-fluorophenyl]-3-[4-(3-fluorophenyl)-2-isopropyl-1-methyl-1H-imidazol-5-yl]urea] | > 7.00
COc1cc2nccc(Oc3ccc(NC(=O)Nc4[nH]c(C(C)(C)C)nc4-c4cccnc4F)cc3)c2cc1OC [Compound 40, 1-[2-tert-Butyl-4-(2-fluoropyridin-3-yl)-1H-imidazol-5-yl]-3-[4-(6,7-dimethoxyquinolin-4-yloxy)phenyl]urea] | > 7.00
COc1cc2nccc(Oc3ccc(NC(=O)Nc4[nH]c(C(C)(C)C)nc4-c4cccnc4Cl)c(C)c3)c2cc1OC [Compound 61, 1-[2-tert-Butyl-4-(2-chloropyridin-3-yl)-1H-imidazol-5-yl]-3-[4-(6,7-dimethoxyquinolin-4-yloxy)-2-methylphenyl]urea] | > 7.00
COC(=O)c1cc2c(Oc3ccc(NC(=O)Nc4[nH]c(C(C)(C)C)nc4-c4c(C)noc4C)cc3F)ccnc2cc1OC [Compound 73, Methyl 4-(4-{3-[2-tert-butyl-4-(3,5-dimethylisoxazol-4-yl)-1H-imidazol-5-yl]ureido}-2-fluorophenoxy)-7-methoxyquinoline-6-carboxylate] | > 7.00
COc1cc2nccc(Oc3ccc(NC(=O)Nc4[nH]c(C(C)(C)C)nc4-c4cc(C)cnc4Cl)cc3)c2cc1OC [Compound 38, 1-[2-tert-Butyl-4-(2-chloro-5-methylpyridin-3-yl)-1H-imidazol-5-yl]-3-[4-(6,7-dimethoxyquinolin-4-yloxy)phenyl]urea] | > 7.00
COc1cc2nccc(Oc3ccc(NC(=O)Nc4c(-c5ccc(F)cc5)nc(C(C)(C)C)n4C)cc3F)c2cc1OC [Compound 12, 1-[2-tert-Butyl-4-(4-fluorophenyl)-1-methyl-1H-imidazol-5-yl]-3-[4-(6,7-dimethoxyquinolin-4-yloxy)-3-fluorophenyl]urea] | > 7.00
COc1cc2nccc(Oc3ccc(NC(=O)Nc4[nH]c(C(C)(C)C)nc4-c4c(C)noc4C)c(C)c3)c2cc1OC [Compound 45, 1-[2-tert-Butyl-4-(3,5-dimethylisoxazol-4-yl)-1H-imidazol-5-yl]-3-[4-(6,7-dimethoxyquinolin-4-yloxy)-2-methylphenyl]urea] | > 7.00
COc1cc(Oc2ccnc3cc(OC)c(OC)cc23)ccc1NC(=O)Nc1[nH]c(C(C)(C)C)nc1-c1cccnc1Cl [Compound 60, 1-[2-tert-Butyl-4-(2-chloropyridin-3-yl)-1H-imidazol-5-yl]-3-[4-(6,7-dimethoxyquinolin-4-yloxy)-2-methoxyphenyl]urea] | > 7.00
COc1cc2nccc(Oc3ccc(NC(=O)Nc4[nH]c(C(C)(C)C)nc4-c4ccnc(Cl)c4)cc3)c2cc1OC [Compound 59, 1-[2-tert-Butyl-4-(2-chloropyridin-4-yl)-1H-imidazol-5-yl]-3-[4-(6,7-dimethoxyquinolin-4-yloxy)phenyl]urea] | > 7.00
COc1cc2nccc(Oc3ccc(NC(=O)Nc4[nH]c(C(C)(C)C)nc4-c4c(C)noc4C)cc3F)c2cc1C(=O)NCCN1CCOCC1 [Compound 74, 4-(4-{3-[2-tert-Butyl-4-(3,5-dimethylisoxazol-4-yl)-1H-imidazol-5-yl]ureido}-2-fluorophenoxy)-7-methoxy-N-(2-morpholinoethyl)quinoline-6-carboxamide] | > 7.00
COc1cc2nccc(Oc3ccc(NC(=O)Nc4[nH]c(C(C)(C)C)nc4-c4ccncc4)cc3)c2cc1OC [Compound 21, 1-[2-tert-Butyl-4-(pyridin-4-yl)-1H-imidazol-5-yl]-3-[4-(6,7-dimethoxyquinolin-4-yloxy)phenyl]urea] | > 7.00
COc1cc2nccc(Oc3ccc(NC(=O)Nc4[nH]c(C(C)(C)C)nc4-c4cccnc4Cl)c(Cl)c3)c2cc1OC [Compound 44, 1-[2-tert-Butyl-4-(2-chloropyridin-3-yl)-1H-imidazol-5-yl]-3-[2-chloro-4-(6,7-dimethoxyquinolin-4-yloxy)phenyl]urea] | > 7.00
COc1cc2nccc(Oc3ccc(NC(=O)Nc4[nH]c(C(C)(C)C)nc4-c4cccnc4Cl)c(C)c3C)c2cc1OC [Compound 68, 1-[2-tert-Butyl-4-(2-chloropyridin-3-yl)-1H-imidazol-5-yl]-3-[4-(6,7-dimethoxyquinolin-4-yloxy)-2,3-dimethylphenyl]urea] | > 7.00
COc1cc2nccc(Oc3ccc(NC(=O)Nc4c(-c5cccc(F)c5)nc(C(C)(C)C)n4C)c(F)c3)c2cc1OC [Compound 6, 1-[2-tert-Butyl-4-(3-fluorophenyl)-1-methyl-1H-imidazol-5-yl]-3-[4-(6,7-dimethoxyquinolin-4-yloxy)-2-fluorophenyl]urea] | > 7.00
COc1cc2nccc(Oc3ccc(NC(=O)Nc4[nH]c(C(C)(C)C)nc4C#Cc4ccccc4)cc3)c2cc1OC [Compound 34, 1-[2-tert-Butyl-4-(phenylethynyl)-1H-imidazol-4-yl]-3-[4-(6,7-dimethoxyquinolin-5-yloxy)phenyl]urea] | > 7.00
COc1cc2nccc(Oc3ccc(NC(=O)Nc4[nH]c(C(C)(C)C)nc4-c4ccc(Cl)nc4)cc3)c2cc1OC [Compound 56, 1-[2-tert-Butyl-4-(6-chloropyridin-3-yl)-1H-imidazol-5-yl]-3-[4-(6,7-dimethoxyquinolin-4-yloxy)phenyl]urea] | > 7.00
